# Assay results: paper PMC7862700
# The entries are a selection whose mix differs from that of the whole data set. At the low end of the ranking, values are background and their order means little.
# Columns and labels:
# ELF5 = molecular target: T1, ELF5 (UniProt Q9UKW6-2); assay: DAPPL (digital affinity profiling via proximity ligation, sequencing); conditions: 10 mM Tris-HCl pH 7.5, 50 mM NaCl, 1 mM DTT, 4% glycerol, room temperature, 30 min; GST-TFs on glutathione beads, 16-mer random dsDNA library, 0.1% …; high values mean tight binding; double strand, one strand shown; scale: fold enrichment (6-mer frequency, TF over GST control)
# T1 sequence: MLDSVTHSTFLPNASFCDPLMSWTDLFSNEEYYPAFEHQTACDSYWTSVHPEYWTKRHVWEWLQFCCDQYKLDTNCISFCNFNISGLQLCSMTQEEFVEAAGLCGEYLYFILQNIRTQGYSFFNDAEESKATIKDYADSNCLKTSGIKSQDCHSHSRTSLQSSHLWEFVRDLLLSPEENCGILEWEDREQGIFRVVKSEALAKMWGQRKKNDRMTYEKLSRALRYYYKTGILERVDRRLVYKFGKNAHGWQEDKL
# FEV = molecular target: T2, FEV (UniProt Q99581); assay: as above; conditions: 10 mM Tris-HCl pH 7.5, 50 mM NaCl, 1 mM DTT, 4% glycerol, room temperature, 30 min; GST-TFs on glutathione beads, 16-mer random dsDNA library, 0.1% …; high values mean tight binding; double strand, one strand shown; scale: fold enrichment (6-mer frequency, TF over GST control)
# T2 sequence: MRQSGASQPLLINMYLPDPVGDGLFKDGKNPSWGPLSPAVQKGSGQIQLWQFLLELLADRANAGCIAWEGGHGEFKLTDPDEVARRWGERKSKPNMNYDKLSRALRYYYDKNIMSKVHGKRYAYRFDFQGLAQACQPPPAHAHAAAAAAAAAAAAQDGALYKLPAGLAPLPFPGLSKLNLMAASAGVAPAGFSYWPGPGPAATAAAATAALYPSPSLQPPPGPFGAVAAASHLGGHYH
Sequence,binding signal (ELF5),binding signal (FEV)
TAATAC,1.09,
ATCCGG,3.06,
CTATCG,0.974,
CGAATC,0.969,0.998
CAAGAA,1.08,0.991
TTCTGT,1.29,1.27
ATAACG,0.995,0.98
GGATAA,0.896,0.743
CAGATA,0.939,0.907
CCAGAA,0.968,0.949
AAAGTC,0.982,0.925
GTTAAA,0.961,0.991
AGATCA,0.772,0.84
ATCGCT,1.05,1.06
CATTAG,0.928,0.881
CATAAG,0.904,0.877
CCTCTG,1.5,1.48
AGCGAT,0.996,1.05
GATAAC,0.948,0.984
GTTTAG,0.798,0.793
TTCAAC,1.27,1.29

# An excerpt of these results, with bars between the fields:
Sequence | binding signal (ELF5) | binding signal (FEV)
ATCCGG | 3.06 | 
CTATCG | 0.974 | 
CGAATC | 0.969 | 0.998
CAAGAA | 1.08 | 0.991
TTCTGT | 1.29 | 1.27
ATAACG | 0.995 | 0.98
GGATAA | 0.896 | 0.743
AAAGTC | 0.982 | 0.925
GTTAAA | 0.961 | 0.991
AGATCA | 0.772 | 0.84
ATCGCT | 1.05 | 1.06
CATAAG | 0.904 | 0.877
CCTCTG | 1.5 | 1.48
AGCGAT | 0.996 | 1.05
GATAAC | 0.948 | 0.984
GTTTAG | 0.798 | 0.793

# Further results follow:

Sequence,binding signal (ELF5),binding signal (FEV)
TCGTAT,1.01,1.05
TCGAAG,0.867,0.844
CTAGAA,0.991,0.977
TAGCGT,0.931,0.931
GATTTA,0.958,0.968
CCAGCT,0.924,0.971
ATTACC,1.32,1.25
GTAGAT,0.892,0.878
GACTAT,0.868,0.896
TCTAGA,0.929,0.976
GGGGCT,0.925,0.998
CCTAAG,1.11,1.14
TTCAGA,0.935,0.933
TAGCGC,0.834,0.945
CTTCCC,3.61,1.91
ATAAGC,0.995,1.02
AACTGG,1.26,1.12
CAAGTA,1.06,1.04
TTGAGA,0.856,0.925
TGATCA,0.985,0.982
TTCCTA,2.04,1.62

Sequence,binding signal (ELF5),binding signal (FEV)
CAAAGA,0.865,0.938
TATGAG,0.999,0.898
TTGTAG,1.1,1.02
CTTAAA,1.16,1.21
GATCAT,0.92,0.954
CCGACT,1.41,1.52
TCAGCT,0.948,0.991
AGAACT,0.946,0.916
TCTCCT,1.41,1.43
CTGCAT,1.29,1.54
TTAGCC,0.97,0.987
AGTTTA,0.979,0.856
CTACCA,1.26,1.14
GGCATT,0.959,1.04
GATTCG,0.931,0.965
TTTAGT,0.947,0.915
TCGGCT,0.892,0.889
GGATTC,0.909,0.923
ATTAGA,0.836,0.821
GTTATA,0.96,0.972
